Experimental data taken from article PMC2853571.
No constants are given. Whether binding was seen depends on the method and setting. Binding seen in cells or lysates may run through a third protein. Some binding calls cover weakened binding; strength is not graded here.

The chains behind the UniProt entries cited, without tags or fusion partners.
UniProt P68366: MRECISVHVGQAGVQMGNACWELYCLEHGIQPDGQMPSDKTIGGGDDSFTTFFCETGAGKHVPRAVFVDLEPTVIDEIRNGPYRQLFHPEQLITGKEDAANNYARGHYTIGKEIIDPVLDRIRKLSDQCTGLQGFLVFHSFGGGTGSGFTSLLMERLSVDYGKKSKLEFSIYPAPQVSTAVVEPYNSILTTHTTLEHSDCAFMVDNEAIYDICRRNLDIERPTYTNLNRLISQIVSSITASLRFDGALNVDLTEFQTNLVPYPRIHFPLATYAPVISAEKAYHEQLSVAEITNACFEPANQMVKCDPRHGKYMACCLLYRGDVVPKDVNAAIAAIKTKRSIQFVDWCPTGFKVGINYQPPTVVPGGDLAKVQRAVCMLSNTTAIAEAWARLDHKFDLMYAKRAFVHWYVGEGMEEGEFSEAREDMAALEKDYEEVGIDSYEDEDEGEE
UniProt P68363: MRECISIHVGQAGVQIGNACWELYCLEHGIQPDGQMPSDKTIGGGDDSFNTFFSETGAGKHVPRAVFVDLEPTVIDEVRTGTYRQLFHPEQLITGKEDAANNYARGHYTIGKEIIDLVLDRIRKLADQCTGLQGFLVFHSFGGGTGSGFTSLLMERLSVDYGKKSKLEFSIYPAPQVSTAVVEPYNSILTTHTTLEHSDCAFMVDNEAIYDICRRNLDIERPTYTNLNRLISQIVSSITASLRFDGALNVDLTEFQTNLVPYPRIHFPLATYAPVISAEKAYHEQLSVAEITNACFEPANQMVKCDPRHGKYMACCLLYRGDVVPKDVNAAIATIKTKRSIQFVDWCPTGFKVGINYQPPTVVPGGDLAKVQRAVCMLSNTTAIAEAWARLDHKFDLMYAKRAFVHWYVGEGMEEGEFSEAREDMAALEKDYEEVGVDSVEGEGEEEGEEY
UniProt Q9ESD7: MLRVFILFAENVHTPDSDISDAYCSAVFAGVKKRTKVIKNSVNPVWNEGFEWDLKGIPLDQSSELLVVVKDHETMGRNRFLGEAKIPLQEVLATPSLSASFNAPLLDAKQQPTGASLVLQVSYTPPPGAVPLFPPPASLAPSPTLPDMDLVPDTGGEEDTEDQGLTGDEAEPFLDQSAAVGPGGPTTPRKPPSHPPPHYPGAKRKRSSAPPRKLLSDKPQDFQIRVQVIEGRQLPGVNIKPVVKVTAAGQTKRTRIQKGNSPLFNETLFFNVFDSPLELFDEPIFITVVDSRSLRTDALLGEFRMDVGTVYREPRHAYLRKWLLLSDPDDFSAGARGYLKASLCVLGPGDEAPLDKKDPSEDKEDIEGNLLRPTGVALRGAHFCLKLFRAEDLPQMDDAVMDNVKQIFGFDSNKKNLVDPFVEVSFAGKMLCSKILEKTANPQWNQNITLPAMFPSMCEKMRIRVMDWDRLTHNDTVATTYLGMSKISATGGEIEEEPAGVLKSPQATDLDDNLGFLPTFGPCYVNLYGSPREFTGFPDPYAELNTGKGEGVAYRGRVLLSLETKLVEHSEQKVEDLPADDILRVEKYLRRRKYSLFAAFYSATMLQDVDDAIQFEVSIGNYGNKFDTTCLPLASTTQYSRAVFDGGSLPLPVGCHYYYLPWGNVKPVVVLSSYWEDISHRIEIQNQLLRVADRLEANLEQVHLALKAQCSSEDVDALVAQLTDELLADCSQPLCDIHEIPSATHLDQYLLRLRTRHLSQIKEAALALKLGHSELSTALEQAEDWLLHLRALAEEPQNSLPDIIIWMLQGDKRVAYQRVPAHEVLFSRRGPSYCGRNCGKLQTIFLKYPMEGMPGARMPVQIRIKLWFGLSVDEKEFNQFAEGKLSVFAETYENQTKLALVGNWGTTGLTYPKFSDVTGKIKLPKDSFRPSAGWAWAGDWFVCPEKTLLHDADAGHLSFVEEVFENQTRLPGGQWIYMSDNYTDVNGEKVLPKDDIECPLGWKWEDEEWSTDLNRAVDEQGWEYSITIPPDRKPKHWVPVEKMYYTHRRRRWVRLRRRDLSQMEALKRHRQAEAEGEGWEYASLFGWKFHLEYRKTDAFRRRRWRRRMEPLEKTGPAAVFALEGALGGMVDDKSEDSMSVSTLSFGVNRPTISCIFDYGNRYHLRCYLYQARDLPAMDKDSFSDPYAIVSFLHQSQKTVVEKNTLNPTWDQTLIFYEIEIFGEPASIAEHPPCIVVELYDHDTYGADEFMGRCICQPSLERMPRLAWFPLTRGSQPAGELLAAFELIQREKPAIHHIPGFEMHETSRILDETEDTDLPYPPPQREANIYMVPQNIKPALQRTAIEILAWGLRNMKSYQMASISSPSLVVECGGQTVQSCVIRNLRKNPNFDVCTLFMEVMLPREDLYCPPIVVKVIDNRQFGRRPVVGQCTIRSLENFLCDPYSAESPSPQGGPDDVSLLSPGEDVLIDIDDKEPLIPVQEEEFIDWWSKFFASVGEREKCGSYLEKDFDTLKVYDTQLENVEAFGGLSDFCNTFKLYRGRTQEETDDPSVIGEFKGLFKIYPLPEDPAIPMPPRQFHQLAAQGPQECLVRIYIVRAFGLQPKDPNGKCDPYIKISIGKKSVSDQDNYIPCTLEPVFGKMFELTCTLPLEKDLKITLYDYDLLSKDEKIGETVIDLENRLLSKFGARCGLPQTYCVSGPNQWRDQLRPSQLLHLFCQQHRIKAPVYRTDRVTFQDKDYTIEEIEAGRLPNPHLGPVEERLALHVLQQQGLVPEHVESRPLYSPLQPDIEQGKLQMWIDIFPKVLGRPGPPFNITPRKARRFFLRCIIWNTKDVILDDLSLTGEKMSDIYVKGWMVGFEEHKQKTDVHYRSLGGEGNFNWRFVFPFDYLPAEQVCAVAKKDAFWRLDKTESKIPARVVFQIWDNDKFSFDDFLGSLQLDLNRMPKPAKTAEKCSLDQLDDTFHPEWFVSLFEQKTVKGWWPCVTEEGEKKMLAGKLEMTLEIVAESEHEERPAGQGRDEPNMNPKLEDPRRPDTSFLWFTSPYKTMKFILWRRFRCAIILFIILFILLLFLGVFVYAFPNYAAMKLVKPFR

Key:
GST-TubA4A = GST-TubA4A (UniProt P68366); assay: pull-down; 10 µg GST-TubA fusion protein on glutathione Sepharose 4B beads incubated overnight at 4°C with 1 mg mouse leg muscle homogenate (50 mM HEPES pH 7.6, 150 mM NaCl, 1% Triton X-100, 10% glycerol, 1 mM MgCl2); blot with anti-dysferlin; only the target purified
GST-TubA1B = GST-TubA1B (UniProt P68363); assay: as above

binding (GST-TubA4A): binds | binding (GST-TubA1B): binds
Substance: native dysferlin (mouse) (from UniProt Q9ESD7 1-2090)
